# Source: the supplement of paper PMC8728848
# This is one part of the list.
# B1: RbmA (Vibrio cholerae), A0A2H4NFB8 (protein)
# chain: MSNFKGSIMNKRHYYLASCLALLFSTASYAEVDCELQPVIEANLSLNQNQLASNGGYISSQLGIRNESCETVKFKYWLSIKGPEGIYFPAKAVVGVDTAQQESDALTDGRMLNVTRGFWVPEYMADGKYTVSLQVVAENGEVFKANQEFVKGGDLNSLPELNGLTIDIKNQFGINSVESTGGFVPFTIDLNNGREGEAKVEFWMTAVGPDGLIIPVHSREKWMIIAGNTFSKVRGINFDKSYPAGEYTINAQVVDIVSGERVEQLMTVVKK
# Experiments:
# Experiment in all cases: glycan array binding signal (z-score within array); higher = stronger binding
# Details in all cases: glycan notation: IUPAC condensed, linker removed
# Gal(b1-2)Gal = target: Gal(b1-2)Gal
# How it was run: (§1)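 Glycan array data were curated from 3228 arrays in the Consortium for Functional Glycomics database and kept only where the protein sequence was available. Glycan names were converted to IUPAC-condensed notation, and columns mapping to the same glycan were averaged. The binding signal is a within-array Z-score, averaged across arrays of the same protein sequence at different concentrations or buffers and across linkers. Negative Z-scores can be read as non-binding.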
# Gal(b1-3)Gal = target: Gal(b1-3)Gal
# How it was run: as §1
# Gal(b1-3)Gal(b1-4)GlcNAc = target: Gal(b1-3)Gal(b1-4)GlcNAc
# How it was run: as §1
# Gal(b1-3)GalNAc = target: Gal(b1-3)GalNAc
# How it was run: as §1
# [1] = target: Gal(b1-3)GalNAc(a1-3)[Fuc(a1-2)]Gal(b1-4)Glc
# How it was run: as §1
# [2] = target: Gal(b1-3)GalNAc(a1-3)[Fuc(a1-2)]Gal(b1-4)GlcNAc
# How it was run: as §1
# Gal(b1-3)GalNAc(b1-3)Gal = target: Gal(b1-3)GalNAc(b1-3)Gal
# How it was run: as §1
# [3] = target: Gal(b1-3)GalNAc(b1-3)Gal(a1-4)Gal(b1-4)Glc
# How it was run: as §1
# [4] = target: Gal(b1-3)GalNAc(b1-4)Gal(b1-4)Glc
# How it was run: as §1
# [5] = target: Gal(b1-3)GalNAc(b1-4)[Neu5Ac(a2-3)]Gal(b1-4)Glc
# How it was run: as §1
# Gal(b1-3)GlcNAc = target: Gal(b1-3)GlcNAc
# How it was run: as §1
# [6] = target: Gal(b1-3)GlcNAc(a1-3)Gal(b1-4)GlcNAc
# How it was run: as §1
# [7] = target: Gal(b1-3)GlcNAc(a1-6)Gal(b1-4)GlcNAc
# How it was run: as §1
# Gal(b1-3)GlcNAc(b1-2)Man = target: Gal(b1-3)GlcNAc(b1-2)Man
# How it was run: as §1
# [8] = target: Gal(b1-3)GlcNAc(b1-2)Man(a1-3)[Gal(b1-3)GlcNAc(b1-2)Man(a1-6)]Man(b1-4)GlcNAc(b1-4)GlcNAc
# How it was run: as §1
# [9] = target: Gal(b1-3)GlcNAc(b1-2)Man(a1-3)[Gal(b1-3)GlcNAc(b1-2)Man(a1-6)]Man(b1-4)GlcNAc(b1-4)[Fuc(a1-6)]GlcNAc
# How it was run: as §1
# [10] = target: Gal(b1-3)GlcNAc(b1-2)Man(a1-3)[GlcNAc(b1-4)][Gal(b1-3)GlcNAc(b1-2)Man(a1-6)]Man(b1-4)GlcNAc(b1-4)GlcNAc
# How it was run: as §1
# [11] = target: Gal(b1-3)GlcNAc(b1-2)[Gal(b1-3)GlcNAc(b1-6)]Man(a1-6)[Gal(b1-3)GlcNAc(b1-2)Man(a1-3)]Man(b1-4)GlcNAc(b1-4)GlcNAc
# How it was run: as §1
# [12] = target: Gal(b1-3)GlcNAc(b1-3)Gal(b1-3)GlcNAc
# How it was run: as §1
# [13] = target: Gal(b1-3)GlcNAc(b1-3)Gal(b1-4)Glc
# How it was run: as §1
# [14] = target: Gal(b1-3)GlcNAc(b1-3)Gal(b1-4)GlcNAc
# How it was run: as §1
# [15] = target: Gal(b1-3)GlcNAc(b1-3)Gal(b1-4)GlcNAc(b1-2)Man(a1-3)[Gal(b1-3)GlcNAc(b1-3)Gal(b1-4)GlcNAc(b1-2)Man(a1-6)]Man(b1-4)GlcNAc(b1-4)GlcNAc
# How it was run: as §1
# [16] = target: Gal(b1-3)GlcNAc(b1-3)Gal(b1-4)GlcNAc(b1-2)[Gal(b1-3)GlcNAc(b1-3)Gal(b1-4)GlcNAc(b1-6)]Man(a1-6)[Gal(b1-3)GlcNAc(b1-3)Gal(b1-4)GlcNAc(b1-2)Man(a1-3)]Man(b1-4)GlcNAc(b1-4)[Fuc(a1-6)]GlcNAc
# How it was run: as §1
# [17] = target: Gal(b1-3)GlcNAc(b1-3)Gal(b1-4)GlcNAc(b1-3)Gal(b1-4)GlcNAc(b1-2)[Gal(b1-3)GlcNAc(b1-3)Gal(b1-4)GlcNAc(b1-3)Gal(b1-4)GlcNAc(b1-6)]Man(a1-6)[Gal(b1-3)GlcNAc(b1-3)Gal(b1-4)GlcNAc(b1-3)Gal(b1-4)GlcNAc(b1-2)Man(a1-3)]Man(b1-4)GlcNAc(b1-4)[Fuc(a1-6)]GlcNAc
# How it was run: as §1
# [18] = target: Gal(b1-3)GlcNAc(b1-3)Gal(b1-4)GlcNAc(b1-6)[Gal(b1-3)GlcNAc(b1-3)]Gal(b1-4)Glc
# How it was run: as §1
# [19] = target: Gal(b1-3)GlcNAc(b1-3)Gal(b1-4)[Fuc(a1-3)]GlcNAc(b1-6)[Gal(b1-3)GlcNAc(b1-3)]Gal(b1-4)Glc
# How it was run: as §1
# [20] = target: Gal(b1-3)GlcNAc(b1-3)GalNAc
# How it was run: as §1
# [21] = target: Gal(b1-3)GlcNAc(b1-6)Gal(b1-4)GlcNAc
# How it was run: as §1
# [22] = target: Gal(b1-3)GlcNAc(b1-6)GalNAc
# How it was run: as §1
# [23] = target: Gal(b1-3)GlcNAc(b1-6)[Gal(b1-3)]GalNAc
# How it was run: as §1
# Gal(b1-3)GlcNAc6S = target: Gal(b1-3)GlcNAc6S
# How it was run: as §1
# [24] = target: Gal(b1-3)[Fuc(a1-4)]GlcNAc
# How it was run: as §1
# [25] = target: Gal(b1-3)[Fuc(a1-4)]GlcNAc(b1-2)Man
# How it was run: as §1
# [26] = target: Gal(b1-3)[Fuc(a1-4)]GlcNAc(b1-2)Man(a1-3)[Gal(b1-3)[Fuc(a1-4)]GlcNAc(b1-2)Man(a1-6)]Man(b1-4)GlcNAc(b1-4)[Fuc(a1-6)]GlcNAc
# How it was run: as §1
# [27] = target: Gal(b1-3)[Fuc(a1-4)]GlcNAc(b1-3)Gal(b1-3)[Fuc(a1-4)]GlcNAc
# How it was run: as §1
# [28] = target: Gal(b1-3)[Fuc(a1-4)]GlcNAc(b1-3)Gal(b1-4)GlcNAc
# How it was run: as §1
# [29] = target: Gal(b1-3)[Fuc(a1-4)]GlcNAc(b1-3)Gal(b1-4)[Fuc(a1-3)]GlcNAc
# How it was run: as §1
binder,measurement,setting,value
B1,glycan array binding signal (z-score),Gal(b1-2)Gal,-0.082
same,glycan array binding signal (z-score),Gal(b1-3)Gal,-0.26
same,glycan array binding signal (z-score),Gal(b1-3)Gal(b1-4)GlcNAc,-0.265
same,glycan array binding signal (z-score),Gal(b1-3)GalNAc,-1.04
same,glycan array binding signal (z-score),[1],0.144
same,glycan array binding signal (z-score),[2],-0.973
same,glycan array binding signal (z-score),Gal(b1-3)GalNAc(b1-3)Gal,-0.362
same,glycan array binding signal (z-score),[3],-1.19
same,glycan array binding signal (z-score),[4],0.503
same,glycan array binding signal (z-score),[5],-0.855
same,glycan array binding signal (z-score),Gal(b1-3)GlcNAc,-0.559
same,glycan array binding signal (z-score),[6],-0.24
same,glycan array binding signal (z-score),[7],-0.287
same,glycan array binding signal (z-score),Gal(b1-3)GlcNAc(b1-2)Man,0.691
same,glycan array binding signal (z-score),[8],0.769
same,glycan array binding signal (z-score),[9],1.19
same,glycan array binding signal (z-score),[10],0.268
same,glycan array binding signal (z-score),[11],-0.69
same,glycan array binding signal (z-score),[12],-0.104
same,glycan array binding signal (z-score),[13],-0.748
same,glycan array binding signal (z-score),[14],-0.233
same,glycan array binding signal (z-score),[15],-0.218
same,glycan array binding signal (z-score),[16],1.28
same,glycan array binding signal (z-score),[17],0.876
same,glycan array binding signal (z-score),[18],0.203
same,glycan array binding signal (z-score),[19],1.08
same,glycan array binding signal (z-score),[20],-0.139
same,glycan array binding signal (z-score),[21],-0.684
same,glycan array binding signal (z-score),[22],-0.515
same,glycan array binding signal (z-score),[23],1.07
same,glycan array binding signal (z-score),Gal(b1-3)GlcNAc6S,-0.734
same,glycan array binding signal (z-score),[24],-0.026
same,glycan array binding signal (z-score),[25],-0.323
same,glycan array binding signal (z-score),[26],-0.257
same,glycan array binding signal (z-score),[27],-1.06
same,glycan array binding signal (z-score),[28],-0.691
same,glycan array binding signal (z-score),[29],-0.501

# As a short view, part of the list above:
binder,measurement,setting,value
B1,glycan array binding signal (z-score),[21],-0.684
same,glycan array binding signal (z-score),[22],-0.515
